Laboratory results published in publication PMC7819943, “Rice protein-binding microarrays: a tool to detect cis-acting elements near promoter regions in rice”.
This is one part of the list.

The sequences below were run against T1, OsSMF1 (Oryza sativa, UniProt Q6ZLB0 1-436) (assay: protein-binding microarray (RPBM); PBS, 2% BSA, 51.3 ng/ul salmon testes DNA, 50 uM zinc acetate, 200 nM TF, 25 C, 1 h; high values mean tight binding). Conditions: protein: recombinant; tags: N-terminal polyhistidine and DsRed monomer fusion (pET32a); chain copies: 2; label: CyDye5-dUTP incorporated in the synthesized complementary strand; 3' TTTTT single-stranded linker to array surface; dsDNA, one strand shown.
T1 sequence: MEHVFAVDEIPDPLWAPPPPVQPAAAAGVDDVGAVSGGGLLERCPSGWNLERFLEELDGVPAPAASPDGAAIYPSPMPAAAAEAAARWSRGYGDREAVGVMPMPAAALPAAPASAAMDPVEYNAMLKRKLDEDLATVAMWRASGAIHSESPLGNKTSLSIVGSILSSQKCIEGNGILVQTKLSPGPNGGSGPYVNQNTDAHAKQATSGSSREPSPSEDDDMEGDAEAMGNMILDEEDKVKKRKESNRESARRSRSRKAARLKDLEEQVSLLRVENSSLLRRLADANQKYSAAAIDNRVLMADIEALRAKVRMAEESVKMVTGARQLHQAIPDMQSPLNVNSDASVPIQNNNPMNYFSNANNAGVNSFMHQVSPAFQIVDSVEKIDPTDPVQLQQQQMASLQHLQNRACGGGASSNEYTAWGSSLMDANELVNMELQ
Method in brief: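 Binding signal is defined as the fluorescence intensity of each feature in arbitrary units, read on an Axon 4000B scanner. Transcription factors with N-terminal polyhistidine and DsRed fusions came from E. coli BL21-CodonPlus and were purified on Ni–NTA. They were incubated at 200 nM for 1 h at 25 °C on a custom Agilent array that had been made double-stranded with Cy5-dUTP, with 50 µM zinc acetate present, and the array was washed.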

With “CTTAAAATAACATCTCAGAGGTAGGTACTGTTCGTGAGGGCGGAGTCACCTAGTGCAG” as the sequence, how does the binding signal read?
The binding signal was 29200 fluorescence intensity (a.u.).

Which binding signal does the source give for “TAATGTATTTATTTATTTTATTATGACTTGATTTATCGTCCGGAGTCACCTAGTGCAG” here?
Its binding signal is 3780 fluorescence intensity (a.u.).

For “ACGGGCCGGACAGCTGGTACGTCACGTACACGTCTAGGGCCGGAGTCACCTAGTGCAG”, which binding signal is on record?
The binding signal was 4390 fluorescence intensity (a.u.).

Which binding signal does the source give for “AACAACTTTAGCGGCAAAATAGCGGTGGAAGAAAATCGGACGGAGTCACCTAGTGCAG” here?
The binding signal was 33800 fluorescence intensity (a.u.).

With “GGAGGTAGTATGATGCATCCCTCAACTTTCAAAACCATTGCGGAGTCACCTAGTGCAG” as the sequence, how does the binding signal read?
Its binding signal is 3710 fluorescence intensity (a.u.).

How did the binding signal turn out when “CGCCGTCCTGCTGCTTCCGCCGCATCACATCCCGGTGAGCCGGAGTCACCTAGTGCAG” was run?
The binding signal was 3330 fluorescence intensity (a.u.).

For “ACATTTATTGCATCATTACATTCTGAAGTAATTTCAACATCGGAGTCACCTAGTGCAG”, which binding signal is on record?
Its binding signal is 3470 fluorescence intensity (a.u.).

“TTGGTAGTTGGGTGGTGATGTAGCAGCAGCAGGGGCCGGCCGGAGTCACCTAGTGCAG” was tested. Which binding signal did it give?
Its binding signal is 4600 fluorescence intensity (a.u.).

Which binding signal does the source give for “CGTTGGCCACGTTGATGGTGACCCGTACGCTCTCCCCGGCCGGAGTCACCTAGTGCAG” here?
The binding signal was 5210 fluorescence intensity (a.u.).

How did the binding signal turn out when “CTTCCCCGAGTCCATCGCCGGAGTAGTAGTGCCGCAGAAGCGGAGTCACCTAGTGCAG” was run?
Its binding signal is 28800 fluorescence intensity (a.u.).

With “CTCATTTGAACACATGTACACTACTAATCCTCGTTCTGGACGGAGTCACCTAGTGCAG” as the sequence, how does the binding signal read?
The binding signal was 39200 fluorescence intensity (a.u.).

How did the binding signal turn out when “CAAGCATTCAAAAGCTAGTAGTGACGTGCTTACTCCATCCCGGAGTCACCTAGTGCAG” was run?
Its binding signal is 8130 fluorescence intensity (a.u.).

Which binding signal does the source give for “AGGATGAGCGGTTCCTCCGTGACACGGCAGTGGGTTTCATCGGAGTCACCTAGTGCAG” here?
Its binding signal is 4010 fluorescence intensity (a.u.).

With “CGTCATCTCGTGTACCGCAGGCGCGTGGCGTGCCAAGTTCCGGAGTCACCTAGTGCAG” as the sequence, how does the binding signal read?
The binding signal was 3160 fluorescence intensity (a.u.).

Which binding signal does the source give for “CCTTCGCCGTTGATCGAGTCGACGTGGCTTTCCTGACGCCCGGAGTCACCTAGTGCAG” here?
The binding signal was 15500 fluorescence intensity (a.u.).

For “AATCGCGGGGTCGTTGTCACTGTCACGCACTAATCCGCTGCGGAGTCACCTAGTGCAG”, which binding signal is on record?
Its binding signal is 5300 fluorescence intensity (a.u.).

With “TGACAATTACTCCGTGTAATCTCCCTCTAAAATTTATTTTCGGAGTCACCTAGTGCAG” as the sequence, how does the binding signal read?
Its binding signal is 23800 fluorescence intensity (a.u.).

For “TCACCTCTATCTCAATGACACGTGGCTCCACATGTGTCTACGGAGTCACCTAGTGCAG”, which binding signal is on record?
The binding signal was 18400 fluorescence intensity (a.u.).

Which binding signal does the source give for “AAGCTTTGTCACTGGCTCAACATGACGATATATCGGTTAACGGAGTCACCTAGTGCAG” here?
Its binding signal is 3450 fluorescence intensity (a.u.).

How did the binding signal turn out when “TCCTCACGCTTTCTCGGTTCCATTTGGCTTTATTAATAATCGGAGTCACCTAGTGCAG” was run?
The binding signal was 3260 fluorescence intensity (a.u.).

Which binding signal does the source give for “ATCAATAAGATGGCATGCATGCAGTTGCAGCTGACGCGCACGGAGTCACCTAGTGCAG” here?
Its binding signal is 3270 fluorescence intensity (a.u.).

“CCATTGCAAAATTCCTACGCTCTACGCAAATCTCGTGTCACGGAGTCACCTAGTGCAG” was tested. Which binding signal did it give?
The binding signal was 3850 fluorescence intensity (a.u.).

How did the binding signal turn out when “CCACCGACGCCGACGTCGGCGGTCTCCGTCTTTCGTGCCACGGAGTCACCTAGTGCAG” was run?
Its binding signal is 3940 fluorescence intensity (a.u.).

For “GGACATGCCAAACCACGACAACAACAATGGCACCACGTCGCGGAGTCACCTAGTGCAG”, which binding signal is on record?
The binding signal was 4080 fluorescence intensity (a.u.).

With “TGGGTTAATTGGGTTGGGTGGGCCGCTGCCTATGTGGCGGCGGAGTCACCTAGTGCAG” as the sequence, how does the binding signal read?
Its binding signal is 6640 fluorescence intensity (a.u.).

For “CCTACTCCACTCCCCTAGCTTCTGTCGCATGAGGTGGAGCCGGAGTCACCTAGTGCAG”, which binding signal is on record?
Its binding signal is 3370 fluorescence intensity (a.u.).

For “AAAGCCCAATGGGCCAGATCAACGCGGCCCATTTACACTCCGGAGTCACCTAGTGCAG”, which binding signal is on record?
The binding signal was 3260 fluorescence intensity (a.u.).

With “ACATGACATGTATAGTGCTGATGACCATGTCAAGTTATCACGGAGTCACCTAGTGCAG” as the sequence, how does the binding signal read?
The binding signal was 4530 fluorescence intensity (a.u.).

How did the binding signal turn out when “CGGCGGTCCGTCGCTCATGTCGTCATTGGCCGGCGAGTCACGGAGTCACCTAGTGCAG” was run?
The binding signal was 5550 fluorescence intensity (a.u.).

For “AGATTAGCGAAACCCACGTACCCTCTATTTCAGTTTAACGCGGAGTCACCTAGTGCAG”, which binding signal is on record?
The binding signal was 4120 fluorescence intensity (a.u.).

For “TGAAGAAGATATAGGTAAATGGAAGCCTGATGATATCATGCGGAGTCACCTAGTGCAG”, which binding signal is on record?
Its binding signal is 21100 fluorescence intensity (a.u.).

For “TACACCTCATGAGTCATGATGATCCGTGGGTTCGTTAGGCCGGAGTCACCTAGTGCAG”, which binding signal is on record?
Its binding signal is 9840 fluorescence intensity (a.u.).

With “AGATATCACAACCTGACCCACATTAGTCACACGCACTCACCGGAGTCACCTAGTGCAG” as the sequence, how does the binding signal read?
Its binding signal is 5510 fluorescence intensity (a.u.).

How did the binding signal turn out when “CTAAACAAAACACATCACACGTCACGTTCAATCAAACTCACGGAGTCACCTAGTGCAG” was run?
The binding signal was 4280 fluorescence intensity (a.u.).

For “CTCGCGGCGCTCGCCATGGCGTGGAGACGTGGGACGTCGCCGGAGTCACCTAGTGCAG”, which binding signal is on record?
Its binding signal is 3470 fluorescence intensity (a.u.).

How did the binding signal turn out when “ATCCAATCCATGGACCGTCTCGTCCTTTGCTTGGGTTGCTCGGAGTCACCTAGTGCAG” was run?
Its binding signal is 28800 fluorescence intensity (a.u.).

For “AATAACCATGTATTGCAATTGACTCATAATAATACATGACCGGAGTCACCTAGTGCAG”, which binding signal is on record?
The binding signal was 30000 fluorescence intensity (a.u.).

“GGGACTAAAGATGCTCAGCCGGCCACGTGGCTGAGCCATCCGGAGTCACCTAGTGCAG” was tested. Which binding signal did it give?
Its binding signal is 12800 fluorescence intensity (a.u.).

Which binding signal does the source give for “AAACCTATGACAATCAACCTTTTGACTGTCATACTAGCTCCGGAGTCACCTAGTGCAG” here?
Its binding signal is 3920 fluorescence intensity (a.u.).

How did the binding signal turn out when “GTTAGTCCACTCAATACACTCATTGCCTCATCATCGTGTCCGGAGTCACCTAGTGCAG” was run?
The binding signal was 6330 fluorescence intensity (a.u.).

How did the binding signal turn out when “GTCCTACTAATATGTGGGCCACTAGTCATCGTCATGAAGTCGGAGTCACCTAGTGCAG” was run?
Its binding signal is 3500 fluorescence intensity (a.u.).

For “AGGGGAGGAGGCATGAGAGGATGGTGACGTTGCTCCGGCCCGGAGTCACCTAGTGCAG”, which binding signal is on record?
Its binding signal is 6230 fluorescence intensity (a.u.).

How did the binding signal turn out when “CGGTAGGCCTCGTTGGAGCGGCGGGTTGGCCAGCGCGTGGCGGAGTCACCTAGTGCAG” was run?
The binding signal was 3160 fluorescence intensity (a.u.).

For “TCAGTGTGATAAATGTCACATTGATGTGGCTCAAGATGTGCGGAGTCACCTAGTGCAG”, which binding signal is on record?
The binding signal was 5580 fluorescence intensity (a.u.).

“GAGTCCATGACCAGCGTCAATCGCCTGGCGCGCCAACTGTCGGAGTCACCTAGTGCAG” was tested. Which binding signal did it give?
Its binding signal is 3680 fluorescence intensity (a.u.).

Which binding signal does the source give for “GCGACCAGTTCGGTTTACTGTTCTGAATTTCTTCGCGGAACGGAGTCACCTAGTGCAG” here?
The binding signal was 3940 fluorescence intensity (a.u.).

“TGGCCCAATCGTGTGCTGAACCCGTGCCGCGTGCGTGCGACGGAGTCACCTAGTGCAG” was tested. Which binding signal did it give?
Its binding signal is 4160 fluorescence intensity (a.u.).

For “GCTTCAGCGTCCGCAATATGGGCCACTTTAATTGGTCCTGCGGAGTCACCTAGTGCAG”, which binding signal is on record?
Its binding signal is 4490 fluorescence intensity (a.u.).

Which binding signal does the source give for “AAACTTACACCCATGATACATTACAAGTTTGGTTTTCTAACGGAGTCACCTAGTGCAG” here?
The binding signal was 29800 fluorescence intensity (a.u.).

For “TTCATTGTCACCCTAGATGATGTCTTATTCTTGTCGATGTCGGAGTCACCTAGTGCAG”, which binding signal is on record?
The binding signal was 3460 fluorescence intensity (a.u.).

With “CACCACCATCGCCGCCGTTATCCACTTCATCACCGGCCACCGGAGTCACCTAGTGCAG” as the sequence, how does the binding signal read?
Its binding signal is 3280 fluorescence intensity (a.u.).

For “ATAACCTAATATAAAGTTCGCTCATATGAAAATTTAAACTCGGAGTCACCTAGTGCAG”, which binding signal is on record?
Its binding signal is 51600 fluorescence intensity (a.u.).

Which binding signal does the source give for “TAGAATGGGTCATATCTAAACTACACTTATGGTGACACATCGGAGTCACCTAGTGCAG” here?
The binding signal was 4130 fluorescence intensity (a.u.).

Which binding signal does the source give for “TAACCGTCAGCCCCGTCCTGTTCCCTAACAAATCCACCACCGGAGTCACCTAGTGCAG” here?
Its binding signal is 3530 fluorescence intensity (a.u.).
